The values that follow come from publication PMC9730630.

The chains behind the UniProt entries cited, without tags or fusion partners.
UniProt P19838: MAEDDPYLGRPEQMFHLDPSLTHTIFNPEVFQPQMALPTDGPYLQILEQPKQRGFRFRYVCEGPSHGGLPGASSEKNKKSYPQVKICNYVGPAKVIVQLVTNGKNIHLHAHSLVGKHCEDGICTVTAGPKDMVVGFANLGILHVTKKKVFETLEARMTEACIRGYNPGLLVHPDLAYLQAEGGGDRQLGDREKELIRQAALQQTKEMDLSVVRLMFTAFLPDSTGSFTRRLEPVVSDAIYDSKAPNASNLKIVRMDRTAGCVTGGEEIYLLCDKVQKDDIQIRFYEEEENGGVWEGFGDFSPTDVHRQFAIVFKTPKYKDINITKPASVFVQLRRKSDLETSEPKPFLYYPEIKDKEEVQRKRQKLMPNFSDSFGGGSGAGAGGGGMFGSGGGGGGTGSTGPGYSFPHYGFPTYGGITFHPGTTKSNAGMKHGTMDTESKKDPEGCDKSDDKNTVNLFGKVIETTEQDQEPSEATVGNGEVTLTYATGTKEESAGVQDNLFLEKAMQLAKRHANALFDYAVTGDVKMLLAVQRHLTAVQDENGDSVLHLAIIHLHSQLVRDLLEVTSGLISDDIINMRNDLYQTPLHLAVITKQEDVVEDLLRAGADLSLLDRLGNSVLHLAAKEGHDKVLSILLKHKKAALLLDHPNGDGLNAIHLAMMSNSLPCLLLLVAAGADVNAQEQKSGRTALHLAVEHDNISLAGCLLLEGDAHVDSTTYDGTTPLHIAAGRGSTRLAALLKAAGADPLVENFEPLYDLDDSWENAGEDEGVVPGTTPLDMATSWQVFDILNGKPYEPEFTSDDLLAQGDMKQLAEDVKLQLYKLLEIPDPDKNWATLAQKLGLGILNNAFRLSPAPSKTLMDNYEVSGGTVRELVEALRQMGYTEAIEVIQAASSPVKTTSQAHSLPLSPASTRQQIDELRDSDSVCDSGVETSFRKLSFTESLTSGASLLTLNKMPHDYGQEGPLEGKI

These are yes or no findings as the source states them, for the method shown. Binding seen in cells or lysates may run through a third protein. Some results given as binding are weak or reduced against the parent protein; the word gives no strength. Where a sequence is shown, tags or fusion partners need not be part of it.

Assay [1] has as its target T1, Myc-tagged edited KPC1 (p.M8V, A22G RNA editing) (human) (UniProt Q5XPI4).
T1 sequence: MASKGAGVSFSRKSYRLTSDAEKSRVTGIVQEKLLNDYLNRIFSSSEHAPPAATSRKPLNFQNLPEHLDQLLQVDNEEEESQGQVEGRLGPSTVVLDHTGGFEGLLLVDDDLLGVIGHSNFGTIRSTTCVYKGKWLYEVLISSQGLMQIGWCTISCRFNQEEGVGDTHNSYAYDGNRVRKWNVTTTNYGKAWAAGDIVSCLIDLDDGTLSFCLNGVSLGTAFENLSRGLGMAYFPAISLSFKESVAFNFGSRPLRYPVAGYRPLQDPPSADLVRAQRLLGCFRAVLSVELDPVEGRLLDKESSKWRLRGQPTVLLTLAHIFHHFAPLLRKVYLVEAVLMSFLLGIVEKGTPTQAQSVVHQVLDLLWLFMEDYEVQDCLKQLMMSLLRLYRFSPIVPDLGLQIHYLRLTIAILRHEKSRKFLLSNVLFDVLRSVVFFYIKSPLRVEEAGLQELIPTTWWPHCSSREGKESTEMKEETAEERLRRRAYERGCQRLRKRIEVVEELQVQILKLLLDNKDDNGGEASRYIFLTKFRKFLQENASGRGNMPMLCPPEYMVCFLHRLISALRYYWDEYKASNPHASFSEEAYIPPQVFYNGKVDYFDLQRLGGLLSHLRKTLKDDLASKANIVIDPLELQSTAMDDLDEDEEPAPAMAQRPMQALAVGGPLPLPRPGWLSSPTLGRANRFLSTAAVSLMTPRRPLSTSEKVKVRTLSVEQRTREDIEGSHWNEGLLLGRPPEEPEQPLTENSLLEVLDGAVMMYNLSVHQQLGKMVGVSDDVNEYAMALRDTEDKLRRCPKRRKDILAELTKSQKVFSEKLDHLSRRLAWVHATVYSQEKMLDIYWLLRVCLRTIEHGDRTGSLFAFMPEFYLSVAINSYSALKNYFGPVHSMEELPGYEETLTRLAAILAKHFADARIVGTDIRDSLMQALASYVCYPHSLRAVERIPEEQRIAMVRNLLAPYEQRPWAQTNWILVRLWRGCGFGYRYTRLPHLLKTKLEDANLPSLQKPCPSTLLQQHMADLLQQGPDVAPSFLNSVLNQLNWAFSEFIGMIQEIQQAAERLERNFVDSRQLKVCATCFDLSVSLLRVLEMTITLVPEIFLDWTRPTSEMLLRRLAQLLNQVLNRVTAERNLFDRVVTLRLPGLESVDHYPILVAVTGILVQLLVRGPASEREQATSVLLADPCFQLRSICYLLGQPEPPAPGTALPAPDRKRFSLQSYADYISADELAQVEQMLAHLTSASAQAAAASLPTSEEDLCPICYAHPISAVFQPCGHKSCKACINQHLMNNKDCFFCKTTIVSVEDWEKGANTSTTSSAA
The experiment in a line: co-IP; QBC939 and RBE cells co-transfected with Myc-KPC1-WT or Myc-KPC1-EDT and Flag-p105; lysates in HEPES buffer (20 mM HEPES pH 7.2, 50 mM NaCl, 0.5% Triton X-100); Myc-KPC1-WT or Myc-KPC1-EDT as bait, precipitated with anti-Myc and protein A/G-agarose at 4 °C; blot with anti-Flag.

Assay [2] has as its target T2, Myc-tagged wild-type KPC1 (Kip1 ubiquitination-promoting complex 1) (human) (UniProt Q5XPI4).
T2 sequence: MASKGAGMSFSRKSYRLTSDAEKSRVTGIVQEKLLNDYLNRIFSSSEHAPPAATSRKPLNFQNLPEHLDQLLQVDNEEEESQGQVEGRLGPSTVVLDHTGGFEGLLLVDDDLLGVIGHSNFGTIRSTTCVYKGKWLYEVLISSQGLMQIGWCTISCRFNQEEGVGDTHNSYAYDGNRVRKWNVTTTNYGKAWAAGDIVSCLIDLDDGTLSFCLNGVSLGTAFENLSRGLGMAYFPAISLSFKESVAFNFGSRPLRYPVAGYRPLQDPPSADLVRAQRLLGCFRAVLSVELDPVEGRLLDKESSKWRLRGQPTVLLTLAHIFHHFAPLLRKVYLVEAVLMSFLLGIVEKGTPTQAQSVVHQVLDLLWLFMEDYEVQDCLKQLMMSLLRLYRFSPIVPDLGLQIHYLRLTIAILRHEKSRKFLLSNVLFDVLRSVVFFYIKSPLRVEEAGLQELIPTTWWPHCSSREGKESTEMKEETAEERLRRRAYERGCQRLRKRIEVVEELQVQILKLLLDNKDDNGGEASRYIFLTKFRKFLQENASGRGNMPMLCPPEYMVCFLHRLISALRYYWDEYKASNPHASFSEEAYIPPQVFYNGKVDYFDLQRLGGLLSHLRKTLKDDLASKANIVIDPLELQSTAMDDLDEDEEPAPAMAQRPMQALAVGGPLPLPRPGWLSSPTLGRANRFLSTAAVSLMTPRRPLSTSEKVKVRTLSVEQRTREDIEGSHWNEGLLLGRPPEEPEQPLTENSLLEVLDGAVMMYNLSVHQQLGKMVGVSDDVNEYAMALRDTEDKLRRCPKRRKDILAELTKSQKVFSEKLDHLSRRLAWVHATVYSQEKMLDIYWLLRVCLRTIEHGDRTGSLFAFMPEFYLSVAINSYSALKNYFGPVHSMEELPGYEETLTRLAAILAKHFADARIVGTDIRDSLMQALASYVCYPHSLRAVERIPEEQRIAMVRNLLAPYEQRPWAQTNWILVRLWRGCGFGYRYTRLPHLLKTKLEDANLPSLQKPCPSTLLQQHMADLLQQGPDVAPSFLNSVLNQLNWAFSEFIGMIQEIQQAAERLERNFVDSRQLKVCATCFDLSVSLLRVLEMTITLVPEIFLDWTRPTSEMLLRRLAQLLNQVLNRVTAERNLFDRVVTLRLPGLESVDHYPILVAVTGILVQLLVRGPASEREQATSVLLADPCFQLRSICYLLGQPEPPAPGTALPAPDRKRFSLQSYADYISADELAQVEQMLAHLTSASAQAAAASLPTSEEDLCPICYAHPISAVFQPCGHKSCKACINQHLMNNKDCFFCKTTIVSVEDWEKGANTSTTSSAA
The assay is described as above.

The target in another assay is Flag-tagged NF-κB1 p105 (UniProt P19838). The experiment in a line: co-IP; QBC939 and RBE cells co-transfected with Myc-KPC1-WT or Myc-KPC1-EDT and Flag-p105; lysates in HEPES buffer (20 mM HEPES pH 7.2, 50 mM NaCl, 0.5% Triton X-100); Flag-p105 as bait, precipitated with anti-Flag and protein A/G-agarose at 4 °C; blot with anti-Myc.

“Flag-tagged NF-κB1 p105 (from UniProt P19838 1-968)”: the binding entry in assay [1] and in assay [2] was “binds” in each case.

B1: Myc-tagged wild-type KPC1 (Kip1 ubiquitination-promoting complex 1) (enzyme, UniProt Q5XPI4-1 1-1314)
chain: MASKGAGMSFSRKSYRLTSDAEKSRVTGIVQEKLLNDYLNRIFSSSEHAPPAATSRKPLNFQNLPEHLDQLLQVDNEEEESQGQVEGRLGPSTVVLDHTGGFEGLLLVDDDLLGVIGHSNFGTIRSTTCVYKGKWLYEVLISSQGLMQIGWCTISCRFNQEEGVGDTHNSYAYDGNRVRKWNVTTTNYGKAWAAGDIVSCLIDLDDGTLSFCLNGVSLGTAFENLSRGLGMAYFPAISLSFKESVAFNFGSRPLRYPVAGYRPLQDPPSADLVRAQRLLGCFRAVLSVELDPVEGRLLDKESSKWRLRGQPTVLLTLAHIFHHFAPLLRKVYLVEAVLMSFLLGIVEKGTPTQAQSVVHQVLDLLWLFMEDYEVQDCLKQLMMSLLRLYRFSPIVPDLGLQIHYLRLTIAILRHEKSRKFLLSNVLFDVLRSVVFFYIKSPLRVEEAGLQELIPTTWWPHCSSREGKESTEMKEETAEERLRRRAYERGCQRLRKRIEVVEELQVQILKLLLDNKDDNGGEASRYIFLTKFRKFLQENASGRGNMPMLCPPEYMVCFLHRLISALRYYWDEYKASNPHASFSEEAYIPPQVFYNGKVDYFDLQRLGGLLSHLRKTLKDDLASKANIVIDPLELQSTAMDDLDEDEEPAPAMAQRPMQALAVGGPLPLPRPGWLSSPTLGRANRFLSTAAVSLMTPRRPLSTSEKVKVRTLSVEQRTREDIEGSHWNEGLLLGRPPEEPEQPLTENSLLEVLDGAVMMYNLSVHQQLGKMVGVSDDVNEYAMALRDTEDKLRRCPKRRKDILAELTKSQKVFSEKLDHLSRRLAWVHATVYSQEKMLDIYWLLRVCLRTIEHGDRTGSLFAFMPEFYLSVAINSYSALKNYFGPVHSMEELPGYEETLTRLAAILAKHFADARIVGTDIRDSLMQALASYVCYPHSLRAVERIPEEQRIAMVRNLLAPYEQRPWAQTNWILVRLWRGCGFGYRYTRLPHLLKTKLEDANLPSLQKPCPSTLLQQHMADLLQQGPDVAPSFLNSVLNQLNWAFSEFIGMIQEIQQAAERLERNFVDSRQLKVCATCFDLSVSLLRVLEMTITLVPEIFLDWTRPTSEMLLRRLAQLLNQVLNRVTAERNLFDRVVTLRLPGLESVDHYPILVAVTGILVQLLVRGPASEREQATSVLLADPCFQLRSICYLLGQPEPPAPGTALPAPDRKRFSLQSYADYISADELAQVEQMLAHLTSASAQAAAASLPTSEEDLCPICYAHPISAVFQPCGHKSCKACINQHLMNNKDCFFCKTTIVSVEDWEKGANTSTTSSAA
Consider B1, for which, in the assay with Flag-tagged NF-κB1 p105, the binding result is listed as “binds”.

B2: Myc-tagged edited KPC1 (p.M8V, A22G RNA editing) (enzyme, UniProt Q5XPI4-1 1-1314)
chain: MASKGAGVSFSRKSYRLTSDAEKSRVTGIVQEKLLNDYLNRIFSSSEHAPPAATSRKPLNFQNLPEHLDQLLQVDNEEEESQGQVEGRLGPSTVVLDHTGGFEGLLLVDDDLLGVIGHSNFGTIRSTTCVYKGKWLYEVLISSQGLMQIGWCTISCRFNQEEGVGDTHNSYAYDGNRVRKWNVTTTNYGKAWAAGDIVSCLIDLDDGTLSFCLNGVSLGTAFENLSRGLGMAYFPAISLSFKESVAFNFGSRPLRYPVAGYRPLQDPPSADLVRAQRLLGCFRAVLSVELDPVEGRLLDKESSKWRLRGQPTVLLTLAHIFHHFAPLLRKVYLVEAVLMSFLLGIVEKGTPTQAQSVVHQVLDLLWLFMEDYEVQDCLKQLMMSLLRLYRFSPIVPDLGLQIHYLRLTIAILRHEKSRKFLLSNVLFDVLRSVVFFYIKSPLRVEEAGLQELIPTTWWPHCSSREGKESTEMKEETAEERLRRRAYERGCQRLRKRIEVVEELQVQILKLLLDNKDDNGGEASRYIFLTKFRKFLQENASGRGNMPMLCPPEYMVCFLHRLISALRYYWDEYKASNPHASFSEEAYIPPQVFYNGKVDYFDLQRLGGLLSHLRKTLKDDLASKANIVIDPLELQSTAMDDLDEDEEPAPAMAQRPMQALAVGGPLPLPRPGWLSSPTLGRANRFLSTAAVSLMTPRRPLSTSEKVKVRTLSVEQRTREDIEGSHWNEGLLLGRPPEEPEQPLTENSLLEVLDGAVMMYNLSVHQQLGKMVGVSDDVNEYAMALRDTEDKLRRCPKRRKDILAELTKSQKVFSEKLDHLSRRLAWVHATVYSQEKMLDIYWLLRVCLRTIEHGDRTGSLFAFMPEFYLSVAINSYSALKNYFGPVHSMEELPGYEETLTRLAAILAKHFADARIVGTDIRDSLMQALASYVCYPHSLRAVERIPEEQRIAMVRNLLAPYEQRPWAQTNWILVRLWRGCGFGYRYTRLPHLLKTKLEDANLPSLQKPCPSTLLQQHMADLLQQGPDVAPSFLNSVLNQLNWAFSEFIGMIQEIQQAAERLERNFVDSRQLKVCATCFDLSVSLLRVLEMTITLVPEIFLDWTRPTSEMLLRRLAQLLNQVLNRVTAERNLFDRVVTLRLPGLESVDHYPILVAVTGILVQLLVRGPASEREQATSVLLADPCFQLRSICYLLGQPEPPAPGTALPAPDRKRFSLQSYADYISADELAQVEQMLAHLTSASAQAAAASLPTSEEDLCPICYAHPISAVFQPCGHKSCKACINQHLMNNKDCFFCKTTIVSVEDWEKGANTSTTSSAA
As to B2, in the assay with Flag-tagged NF-κB1 p105, the binding entry was “binds”.
